This test in a line: qHTS Assay for Lipid Storage Modulators in Drosophila S3 Cells.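 On cell number change: cells counted by Cell Tracker Red CMTPX staining in the red channel.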 Conditions: BODIPY lipid droplet fluorescence, 18-24 h; for cell number change: measured here: cell count max response, cells fed with added oleic acid. Put shortly:
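Drosophila S3 cells got compounds at several concentrations plus oleic acid (400 uM solution). Laser-scanning cytometry with 488 nm excitation read lipid droplets at 500-530 nm and cells at 575-640 nm. Percent activity was relative to 20 uM Triacsin C.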
On the technique in general: In qHTS, concentration-response curves come from the screen itself.

Where [1] appears, read: measured here: lipid fluorescence (Fed channel) AC50, cells fed with added oleic acid.
Where [2] appears, read: measured here: cell number channel AC50, cells fed with added oleic acid.

Some of the results follow. Further columns of the screen follow, without active or inactive calls. Most of these compounds were active or inconclusive in the main read-out, so they are no random draw. Potencies come from curve fits of mixed quality, noted in brackets.

For orientation: AC50 means the concentration at which the activity in the assay is half-maximal. `Cc1cc(NC(=O)CCC(=O)N(CCC(C)C)C(C(=O)NC2CCCC2)c2ccccc2C)no1` (stereo unspecified): the cell number change was 9.46%. For the same compound, the AC50 under setting [1] is 0.13 µM [rising, full curve]. Regarding `COc1ccc(N2CCN(C(=O)c3oc4c(c3C)C(=O)CCC4)CC2)cc1`, the cell number change worked out at 11.8%.

Take `CC(=O)Nc1ccc(Oc2ccc(NC(C)=O)c(NC(C)=O)c2)cc1`: the cell number change amounted to 119%. Further, the AC50 under setting [1] was 29.1 µM [rising, single point].

Take `COc1ccc(CC(=O)N2N=C(C)CC2(O)C(F)(F)F)cc1` (stereo unspecified): the cell number change amounted to 4.6%. Also, the AC50 under setting [1] is 29.1 µM [rising, single point]. Consider `CN(C)C=NC(=O)c1cccn1-c1ncc(C(F)(F)F)cc1Cl`, for which the cell number change was -6.65%.

As to `CC(C)C(c1nnnn1Cc1ccccc1)N1CCC(C(N)=O)CC1` (stereo unspecified), the cell number change was -30.9%. Besides, the AC50 under setting [2] was 2.31 µM [falling, partial curve]. Besides, the AC50 under setting [1] is 2.91 µM [falling, full curve, poor fit]. With `COC(=O)c1ccccc1NC(=S)NC(=O)C1CCCCC1`, the cell number change was found to be 15.4%. For the same compound, the AC50 under setting [1] was 29.1 µM [rising, single point].

Turning to `Cc1ccc2nc(-c3ccncc3)[nH]c2c1`, the cell number change worked out at 6.04%. With `O=C(CSc1nccn(-c2ccc(F)c(Cl)c2)c1=O)NC1CCCC1`, the cell number change was -10.8%. In addition, the AC50 under setting [2] is 2.31 µM [rising, single point]. Turning to `O=C(CC(=O)c1ccccc1)Nc1cc(C(F)(F)F)ccc1Cl`, the cell number change worked out at 5.68%. Besides, the AC50 under setting [1] is 3.66 µM [rising, partial curve, poor fit]. For the compound `COc1ccccc1C(=O)Nc1ccnn1C1CCN(Cc2ncc[nH]2)CC1`, the cell number change is -23.4%. In the case of `COc1ccc(OC)c(NC(=O)C2CCCCC2)c1`, the cell number change turned out to be 0.47%. Under setting [1], the AC50 was 20.6 µM [rising, partial curve]. With `COc1ccc(C2=NN(C(=O)CSc3nc4ncc(Cl)cc4[nH]3)C(c3ccco3)C2)cc1` (stereo unspecified), the cell number change was found to be 9.65%. `CCOc1ccc(N=Cc2c(O)n(-c3cccc(C)n3)c(=O)c3ccccc23)cc1`: the cell number change was -2.69%. For `O=c1ccc2cc(S(=O)(=O)N3CCN(c4ccccc4)CC3)ccc2[nH]1`, the cell number change is -16.7%. Moreover, the AC50 under setting [1] was 0.731 µM [rising, single point]. Regarding `CN1CCN(Cc2cc(COCc3ccccc3)c3cccnc3c2O)CC1`, the cell number change is -14.3%. Besides, the AC50 under setting [1] was 2.59 µM [falling, single point].

As to `NS(=O)(=O)c1ccc(NC(=O)Nc2ccc3c(c2)OCO3)cc1`, under setting [1], the AC50 was 3.26 µM [rising, full curve]. For the compound `O=C(NC(=S)NCc1cccnc1)c1ccccc1`, the cell number change was 22.6%. For the compound `COc1ccccc1NC(=O)c1sc2ncn(CC(=O)Nc3ccccc3)c(=O)c2c1C`, the cell number change was found to be 109%. The AC50 under setting [2] is 20.6 µM [rising, partial curve]. The AC50 under setting [1] was 6.51 µM [rising, single point]. As for `O=C(CCN1C(=O)CSc2ccccc21)Nc1cccc(C(F)(F)F)c1`, the cell number change came to 3.19%. The AC50 under setting [1] was 0.116 µM [rising, full curve, poor fit]. Consider `CCOc1ccc2ccccc2c1C(=O)N1CCOCC1`, for which the cell number change was -86.1%. In addition, the AC50 under setting [2] is 29.1 µM [falling, single point]. Consider `Cc1nc(C(=O)NNC(=O)c2ccc(C(F)(F)F)cc2)cs1`, for which the cell number change was -8.26%. The AC50 under setting [2] was 0.00461 µM [falling, full curve, poor fit]. For the compound `CC(C)(C)n1nc2c(c1NC(=O)Cc1ccccc1)CS(=O)(=O)C2`, the cell number change is -51.3%. The AC50 under setting [2] is 5.8 µM [falling, full curve]. The AC50 under setting [1] is 5.8 µM [falling, full curve].

As for `CCNC(=S)Nc1cc(OCC)c(N2CCOCC2)cc1OCC`, under setting [1], the AC50 is 0.517 µM [rising, full curve, poor fit]. Regarding `CC1=CC(C)(C)NC(=S)N1c1ccc2ccccc2c1`, the cell number change is -47.9%. Also, the AC50 under setting [2] was 2.59 µM [falling, full curve]. Moreover, the AC50 under setting [1] was 16.4 µM [falling, single point]. For `O=S(=O)(c1cccc(-c2csc(-c3ccccc3)n2)c1)N1CCOCC1`, the cell number change is -36.2%. Also, the AC50 under setting [2] was 29.1 µM [falling, partial curve, poor fit]. On to `CC(=O)c1ccc(NC(=O)NC2CCCc3ccccc32)cc1` (stereo unspecified), for which the cell number change was found to be 15.5%. Under setting [1], the AC50 was 3.55 µM [rising, single point]. `Cc1cc(N2CCC(N(C)C3CCCC3)CC2)nc2cc(O)ccc12`: the cell number change was -16.3%. The AC50 under setting [1] is 0.731 µM [falling, full curve]. Turning to `OCC1(Cc2ccccc2)CCN(Cc2ccccn2)CC1`, the cell number change is -1.51%. Also, the AC50 under setting [1] was 0.0651 µM [falling, full curve, poor fit]. For the compound `CC(=O)Nc1c(F)c(F)c(F)c(F)c1F`, the cell number change was 16.5%. For the compound `O=C(CN1CCN(c2ccccc2O)CC1)Nc1cccnc1Cl`, the cell number change is -5.95%. Further, under setting [2], the AC50 is 4.61 µM [falling, single point]. With `COc1ccc(Cl)cc1C(=O)O/N=C(\N)c1ccccn1`, the cell number change is -18.2%. As for `CCc1cc(=O)oc2cc(C)cc(OC(C)C(=O)NCc3cccnc3)c12` (stereo unspecified), the cell number change was -0.597%. Under setting [1], the AC50 was 18.4 µM [falling, single point]. In the case of `CCCCC(=O)N1CCN(c2nc3ccc(Br)cc3s2)CC1`, the cell number change was -5.1%. For the compound `COCCNC(=O)c1ccc(CS(=O)(=O)c2ccccc2)o1`, the cell number change was -17.6%. Besides, the AC50 under setting [1] is 4.61 µM [falling, full curve, poor fit]. For the compound `CC1(C)CC(NC(=O)CCC2CCCC2)CC(C)(C)N1`, the cell number change is -32%. In addition, under setting [2], the AC50 is 1.64 µM [falling, full curve]. Besides, under setting [1], the AC50 is 18.4 µM [falling, partial curve]. Turning to `CCOC(=O)c1c(/N=C/C2=C(O)CCCC2=O)sc(C)c1C`, the AC50 under setting [1] was 25.9 µM [rising, single point].

For `O=C(c1ccc(COc2ccccc2)o1)N1CCN(S(=O)(=O)c2ccccc2Cl)CC1`, the cell number change was -18.4%. Besides, the AC50 under setting [1] is 29.1 µM [falling, single point]. Turning to `O=C(c1ccc(Cl)c(S(=O)(=O)NCc2ccco2)c1)N1CCN(c2ccccc2F)CC1`, the AC50 under setting [2] was 4.11 µM [rising, single point]. With `CCOC(=O)c1[nH]c2ccc(OC)cc2c1NC(=O)N1CCOCC1`, the cell number change stood at 3.31%. The AC50 under setting [1] was 0.651 µM [rising, single point]. As for `O=C(c1c(Cl)cccc1Cl)N1CCN(c2ccccn2)CC1`, the cell number change was 58.4%. As to `CC(C)c1ccc(NC(=O)CCNC(=O)Cn2cnc3ccccc3c2=O)cc1`, the cell number change came to 30.8%. In addition, the AC50 under setting [2] was 16.4 µM [rising, partial curve, poor fit]. Take `O=C(CCCCCn1c(=S)[nH]c2ccsc2c1=O)NC1CCCCC1`: the cell number change came to 11.9%. Besides, under setting [1], the AC50 was 0.731 µM [rising, single point].
